No constants are given. Whether binding was seen depends on the method and setting.

The chains behind the UniProt entries cited, without tags or fusion partners. Where a name states a change or a piece, a line headed by the entry shows the natural chain unless it says otherwise. A line that says so, or that is headed by a name, gives the form on record, which may keep a tag or linker.
mutant α1-antitrypsin (A355D/I356P/P357D/M358S) (P01009, form named): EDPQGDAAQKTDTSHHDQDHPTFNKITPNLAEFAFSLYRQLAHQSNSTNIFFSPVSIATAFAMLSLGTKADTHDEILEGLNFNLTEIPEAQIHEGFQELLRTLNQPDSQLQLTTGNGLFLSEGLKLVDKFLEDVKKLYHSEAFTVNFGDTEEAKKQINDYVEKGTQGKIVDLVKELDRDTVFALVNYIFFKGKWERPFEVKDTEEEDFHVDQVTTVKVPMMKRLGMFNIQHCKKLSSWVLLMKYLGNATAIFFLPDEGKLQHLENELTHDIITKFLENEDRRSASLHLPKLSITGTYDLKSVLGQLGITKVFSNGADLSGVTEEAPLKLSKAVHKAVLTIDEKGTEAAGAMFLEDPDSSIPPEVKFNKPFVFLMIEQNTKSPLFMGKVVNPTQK

Test [1] concerns the target T1, proteinase 3 of human blood neutrophils (human (endogenous in blood neutrophils)) (UniProt P24158).
T1 sequence: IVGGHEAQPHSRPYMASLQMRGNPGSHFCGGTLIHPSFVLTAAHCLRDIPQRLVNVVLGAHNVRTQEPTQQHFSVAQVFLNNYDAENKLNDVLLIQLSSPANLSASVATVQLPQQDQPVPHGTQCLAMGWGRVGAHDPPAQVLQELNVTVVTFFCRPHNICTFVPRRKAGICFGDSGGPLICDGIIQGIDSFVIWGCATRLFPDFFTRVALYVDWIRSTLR
The test can be described thus: SDS-stable complex formation, immunoblot; AAT species incubated with cell-free supernatant of ionophore A23187-activated neutrophils; SDS-PAGE and anti-PR3 immunoblot; read-out is the 72 kDa AAT:PR3 complex; only the binder purified.

Test [2] deals with T2, purified proteinase 3 (human) (UniProt P24158).
T2 sequence: T1 sequence
Put plainly: SDS-stable complex formation, immunoblot; AAT species incubated with purified PR3; SDS-PAGE and anti-PR3 immunoblot; read-out is the 72 kDa AAT:PR3 complex; both purified.

In the case of “mutant α1-antitrypsin (A355D/I356P/P357D/M358S) (from UniProt P01009 25-418)”, the binding entry in test [1] and in test [2] was “no binding” throughout.

The values are drawn from PMC9711875.
